Assay results taken from article PMC5485919.
Results are given in words; binding and its absence hold for the method and conditions named. For some assays here: In cells and extracts the contact can be indirect. Some results given as binding are weak or reduced against the parent protein; the word gives no strength. For some assays here: Tags and fused reporters may be left off the sequences shown.

By UniProt entry, the sequences of proteins in these tests, tags left out. Residues count along the entry.
UniProt P02769, residues 25-607: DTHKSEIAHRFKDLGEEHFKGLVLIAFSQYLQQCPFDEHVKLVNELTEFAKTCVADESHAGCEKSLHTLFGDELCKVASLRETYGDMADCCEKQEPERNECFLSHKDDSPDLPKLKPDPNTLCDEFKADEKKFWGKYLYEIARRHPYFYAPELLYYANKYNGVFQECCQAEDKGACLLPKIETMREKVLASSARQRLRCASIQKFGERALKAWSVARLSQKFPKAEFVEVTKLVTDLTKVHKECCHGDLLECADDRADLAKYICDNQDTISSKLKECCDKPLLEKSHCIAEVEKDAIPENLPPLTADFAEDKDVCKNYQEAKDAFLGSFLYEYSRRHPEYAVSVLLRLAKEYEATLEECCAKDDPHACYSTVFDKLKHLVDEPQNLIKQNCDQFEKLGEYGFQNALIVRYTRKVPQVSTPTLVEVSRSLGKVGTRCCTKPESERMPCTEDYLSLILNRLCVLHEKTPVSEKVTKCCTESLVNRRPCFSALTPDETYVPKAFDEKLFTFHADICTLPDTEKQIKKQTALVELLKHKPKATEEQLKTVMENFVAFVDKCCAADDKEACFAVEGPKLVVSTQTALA

Tests used:
[1] = biological target: bovine serum albumin (bovine) (UniProt P02769); assay: phage display panning; negative control: the same panning protocol without target cells, in 20 ul NaHCO3 and bovine serum albumin on 96-well polystyrene plates; isolated phages sequenced; only the target purified
recombinant CD59 [2] = biological target: T1, recombinant CD59 (UniProt P13987); assay: condition: 2 ug control peptide with 1 ug recombinant CD59 in 21 ul PBS; cross-linking; 2 ug peptide incubated with 1 ug recombinant CD59 in 21 ul PBS overnight at 4°C; cross-linked with 2 mM DTSSP for 1 hour at room temperature; 15% SDS-PAGE and Western blots with anti-peptide F, anti-control peptide and anti-CD59 antibodies; both purified
T1 sequence: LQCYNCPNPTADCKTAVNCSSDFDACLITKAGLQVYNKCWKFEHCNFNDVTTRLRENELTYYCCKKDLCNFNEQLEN

recombinant CD59 [3] = biological target: T1, recombinant CD59; assay: cross-linking; 2 ug peptide incubated with 1 ug recombinant CD59 in 21 ul PBS overnight at 4°C; cross-linked with 2 mM DTSSP for 1 hour at room temperature; 15% SDS-PAGE and Western blots with anti-peptide F, anti-control peptide and anti-CD59 antibodies; both purified
[4] = biological target: T2, Myc-DDK-tagged human CD59 (human) (UniProt P13987); assay: co-IP; lysate of HEK293 cells transfected with Myc-DDK-CD59 incubated with 500 ug peptide overnight at 4°C; cross-linked with 2 mM DTSSP; immunoprecipitated with anti-DDK antibodies and protein A/G agarose; Western blots with anti-peptide F, anti-DDK and anti-CD59 antibodies; only the binder purified
T2 sequence: T1 sequence

[5] = biological target: T3, CD59 (endogenous, HUVEC lysate) (human (endogenous in HUVEC)) (UniProt P13987); assay: native gel or EMSA; 100 ug HUVEC whole-cell lysate incubated with 30 ug peptide F at 4°C for 2 hours; 10% native gel, Western blot with anti-peptide F antibodies; the band of bound peptide F (250 kD) cut from a duplicate gel, trypsin digested and analysed by mass spectrometry; only the binder purified
T3 sequence: T1 sequence

FHENWPS [peptide FHENWPS (peptide F) displayed on M13 phage] was tested, and the binding [1] was “no binding”.

With CPLAYGTW [control peptide (CPLAYGTW)] the binding (recombinant CD59 [2]) was “no binding”.

In the case of CFHENWPS [peptide F (synthetic, CFHENWPS)], the binding (recombinant CD59 [3]) is reported as “binds”, the binding [4] is reported as “binds” and the binding [5] is reported as “binds”.
